Measurements: PMC5041976
Residue numbers refer to the chain shown, from its start. Numbers in names are those of the source. These are yes or no findings as the source states them, for the method shown. For some of these results: In cells and extracts the contact can be indirect. Some entries that bind do so weakly or less than the wild type. For some of these results: Sequences can lack the tags named with a protein.

By UniProt entry, the sequences of proteins in these tests, tags left out. Where a name states a change or a piece, a line headed by the entry shows the natural chain unless it says otherwise.
UniProt P03372: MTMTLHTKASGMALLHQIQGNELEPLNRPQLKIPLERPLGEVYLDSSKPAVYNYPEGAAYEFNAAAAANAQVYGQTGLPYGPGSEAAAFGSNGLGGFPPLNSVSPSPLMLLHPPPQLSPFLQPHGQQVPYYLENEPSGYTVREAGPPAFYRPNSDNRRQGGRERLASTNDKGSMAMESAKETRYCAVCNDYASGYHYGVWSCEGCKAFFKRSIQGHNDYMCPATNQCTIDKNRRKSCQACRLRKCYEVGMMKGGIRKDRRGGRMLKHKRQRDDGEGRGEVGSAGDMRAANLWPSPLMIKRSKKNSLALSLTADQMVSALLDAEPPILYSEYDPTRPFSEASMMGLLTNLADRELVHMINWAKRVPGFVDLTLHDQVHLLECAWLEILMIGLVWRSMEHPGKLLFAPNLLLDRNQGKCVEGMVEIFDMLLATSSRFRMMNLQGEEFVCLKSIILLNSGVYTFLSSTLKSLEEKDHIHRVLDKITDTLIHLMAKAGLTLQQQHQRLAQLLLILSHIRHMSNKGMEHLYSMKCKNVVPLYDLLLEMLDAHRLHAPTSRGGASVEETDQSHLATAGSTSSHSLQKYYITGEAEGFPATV
UniProt Q13547: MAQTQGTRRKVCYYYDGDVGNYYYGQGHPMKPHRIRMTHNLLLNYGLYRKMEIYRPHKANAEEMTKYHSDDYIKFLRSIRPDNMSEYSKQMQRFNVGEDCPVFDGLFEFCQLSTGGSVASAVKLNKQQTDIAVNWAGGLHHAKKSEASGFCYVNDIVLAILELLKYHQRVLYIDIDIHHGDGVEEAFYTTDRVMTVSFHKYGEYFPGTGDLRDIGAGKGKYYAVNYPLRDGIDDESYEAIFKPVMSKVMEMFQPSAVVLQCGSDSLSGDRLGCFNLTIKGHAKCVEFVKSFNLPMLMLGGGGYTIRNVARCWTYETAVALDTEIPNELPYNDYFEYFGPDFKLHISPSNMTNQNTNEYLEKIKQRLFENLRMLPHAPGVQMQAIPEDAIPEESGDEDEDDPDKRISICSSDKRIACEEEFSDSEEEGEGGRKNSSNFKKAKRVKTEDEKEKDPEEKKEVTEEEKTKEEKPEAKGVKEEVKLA
UniProt Q92769: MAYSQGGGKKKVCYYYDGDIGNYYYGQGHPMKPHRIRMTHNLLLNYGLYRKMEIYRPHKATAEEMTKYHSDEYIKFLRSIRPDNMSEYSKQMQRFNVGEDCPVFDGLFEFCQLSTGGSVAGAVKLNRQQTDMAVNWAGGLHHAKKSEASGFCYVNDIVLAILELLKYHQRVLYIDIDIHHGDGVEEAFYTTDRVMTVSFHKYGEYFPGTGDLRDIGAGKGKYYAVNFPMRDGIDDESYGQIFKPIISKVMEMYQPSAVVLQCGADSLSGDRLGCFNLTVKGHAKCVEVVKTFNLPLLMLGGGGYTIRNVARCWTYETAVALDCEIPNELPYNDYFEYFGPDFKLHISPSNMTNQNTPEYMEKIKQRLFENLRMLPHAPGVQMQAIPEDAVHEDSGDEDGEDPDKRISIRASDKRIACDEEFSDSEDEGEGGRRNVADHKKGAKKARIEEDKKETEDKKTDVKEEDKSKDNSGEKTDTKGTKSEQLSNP

Key:
[1] = biological target: T1, pBIND-TCF21 (human) (UniProt O43680); assay: two-hybrid; CheckMate mammalian two-hybrid system in MCF-7 cells; pBIND-TCF21 with pACT-ERα, pG5-luc reporter, luciferase 36 h after transfection
T1 sequence: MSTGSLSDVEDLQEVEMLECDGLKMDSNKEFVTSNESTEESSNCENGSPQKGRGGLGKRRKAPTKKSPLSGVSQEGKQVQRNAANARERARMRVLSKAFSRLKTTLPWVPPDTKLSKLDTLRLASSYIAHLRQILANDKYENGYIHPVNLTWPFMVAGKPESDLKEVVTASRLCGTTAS

[2] = biological target: T2, transcription factor 21 (TCF21), endogenous (human (endogenous in MCF-7 and T47D)) (UniProt O43680); assay: co-IP; endogenous proteins in MCF-7 and T47D lysates; IP with anti-ERα and blot with anti-TCF21, or vice versa; anti-IgG as control; MCF-7 also with or without 17β-estradiol (E2; interaction weakened with E2); lysis in 50 mM Tris-HCl pH 7.4, 150 mM NaCl, 0.1% SDS, 1% NP-40, 0.5% sodium deoxycholate
T2 sequence: T1 sequence

[3] = biological target: T3, Flag-TCF21 (expressed in HEK 293T) (human) (UniProt O43680); assay: co-IP; HEK 293T cells co-transfected with two tagged proteins; IP by one tag (anti-GFP, anti-HA or anti-Flag), Western blot by the other tag; lysis in 50 mM Tris-HCl pH 7.4, 150 mM NaCl, 0.1% SDS, 1% NP-40, 0.5% sodium deoxycholate
T3 sequence: T1 sequence

[4] = biological target: T4, Flag-TCF21(K24R) (expressed in HEK 293T) (human) (UniProt O43680); assay: as above
T4 sequence: T1 sequence with K24R

[5] = biological target: T5, Flag-TCF21 (expressed in MCF-7) (human) (UniProt O43680); assay: co-IP; re-IP: MCF-7 cells transfected with Flag-TCF21 or Flag-TCF21(K24R); IP with anti-ERα, re-IP with anti-Flag, Western blot with anti-HDAC1, anti-HDAC2, anti-Flag or anti-ERα
T5 sequence: T1 sequence

[6] = biological target: T6, Flag-TCF21 (K24R) (expressed in MCF-7) (human) (UniProt O43680); assay: as above
T6 sequence: T1 sequence with K24R

[7] = biological target: estrogen receptor-α (ERα), endogenous (human (endogenous in MCF-7 and T47D)) (UniProt P03372); assay: as above
[8] = biological target: T7, HA-TCF21 (human) (UniProt O43680); assay: co-IP; HEK 293T cells co-transfected with two tagged proteins; IP by one tag (anti-GFP, anti-HA or anti-Flag), Western blot by the other tag; lysis in 50 mM Tris-HCl pH 7.4, 150 mM NaCl, 0.1% SDS, 1% NP-40, 0.5% sodium deoxycholate
T7 sequence: T1 sequence

[9] = biological target: estrogen receptor-α (ERα), endogenous (human (endogenous in MCF-7 and T47D)) (UniProt P03372); assay: co-IP; endogenous proteins in MCF-7 and T47D lysates; IP with anti-ERα and blot with anti-TCF21, or vice versa; anti-IgG as control; MCF-7 also with or without 17β-estradiol (E2; interaction weakened with E2); lysis in 50 mM Tris-HCl pH 7.4, 150 mM NaCl, 0.1% SDS, 1% NP-40, 0.5% sodium deoxycholate
[10] = biological target: EGFP-ERα (UniProt P03372); assay: co-IP; HEK 293T cells co-transfected with two tagged proteins; IP by one tag (anti-GFP, anti-HA or anti-Flag), Western blot by the other tag; lysis in 50 mM Tris-HCl pH 7.4, 150 mM NaCl, 0.1% SDS, 1% NP-40, 0.5% sodium deoxycholate

With pACT-ERα (from UniProt P03372 1-595) the binding [1] was “binds”.

In the case of “estrogen receptor-α (ERα), endogenous (from UniProt P03372 1-595)”, the binding [2] is reported as “binds”.

In the case of “Myc-HDAC1 (from UniProt Q13547 1-482) (enzyme)”, the binding [3] is reported as “binds”.

EGFP-ERα (from UniProt P03372 1-595) was tested, and the binding [3] was “binds” and the binding [4] was “binds”.

For “HDAC2, endogenous (from UniProt Q92769 1-488) (enzyme)”, the binding [5] was “binds”, the binding [6] was “binds” and the binding [7] was “binds”.

“Myc-HDAC2 (from UniProt Q92769 1-488) (enzyme)” was tested, and the binding [3] was “binds”.

For “HDAC1, endogenous (from UniProt Q13547 1-482) (enzyme)”, the binding [5] was “binds” and the binding [6] was “binds”.

For “Flag-tagged full-length ERα (from UniProt P03372 1-595)”, the binding [8] was “binds”.

B1: transcription factor 21 (TCF21), endogenous (protein, UniProt O43680 1-179)
chain: T1 sequence
B1 was tested, and the binding [9] was “binds”.

B2: Flag-TCF21 (expressed in MCF-7) (protein, UniProt O43680 1-179)
chain: T1 sequence
In the case of B2, the binding [7] is reported as “binds”.

B3: Flag-TCF21 (K24R) (expressed in MCF-7) (protein, UniProt O43680 1-179)
chain: T1 sequence with K24R
With B3 the binding [7] was “binds”.

B4: Flag-TCF21 (expressed in HEK 293T) (protein, UniProt O43680 1-179)
chain: T1 sequence
B4 was tested, and the binding [10] was “binds”.
